In publication PMC8514509:
Results are given in words; binding and its absence hold for the method and conditions named. For part of these data: Binding seen in cells or lysates may run through a third protein. Some binding calls cover weakened binding; strength is not graded here. For part of these data: Where a sequence is shown, tags or fusion partners need not be part of it.

Amino acid sequences for entries named in this document (tags omitted).
UniProt P03372: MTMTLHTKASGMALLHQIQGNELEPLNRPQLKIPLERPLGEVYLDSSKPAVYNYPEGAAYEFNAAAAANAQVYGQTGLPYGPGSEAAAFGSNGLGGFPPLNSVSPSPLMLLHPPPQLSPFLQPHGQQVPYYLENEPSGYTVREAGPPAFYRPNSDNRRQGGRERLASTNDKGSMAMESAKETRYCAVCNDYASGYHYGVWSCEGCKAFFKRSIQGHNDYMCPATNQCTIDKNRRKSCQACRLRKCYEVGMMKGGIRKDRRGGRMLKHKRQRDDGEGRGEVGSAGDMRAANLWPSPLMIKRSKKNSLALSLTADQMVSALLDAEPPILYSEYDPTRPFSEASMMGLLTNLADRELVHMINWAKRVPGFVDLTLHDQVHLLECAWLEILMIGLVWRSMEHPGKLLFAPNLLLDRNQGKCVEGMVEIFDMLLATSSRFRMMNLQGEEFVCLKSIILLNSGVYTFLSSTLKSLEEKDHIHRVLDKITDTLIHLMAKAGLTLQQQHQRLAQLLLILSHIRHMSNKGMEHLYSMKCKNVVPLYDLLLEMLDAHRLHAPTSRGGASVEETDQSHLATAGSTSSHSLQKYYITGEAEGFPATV

What was measured:
[1] = target: T1, Myc-MINDY1 full length (UniProt Q8N5J2); test: co-IP; HEK293 cells transfected with 2 µg Myc-MINDY1 together with HA-ERα full length or mutants; 24 h; NP-40 lysis buffer; IP with Myc antibody, detection with HA antibody
T1 sequence: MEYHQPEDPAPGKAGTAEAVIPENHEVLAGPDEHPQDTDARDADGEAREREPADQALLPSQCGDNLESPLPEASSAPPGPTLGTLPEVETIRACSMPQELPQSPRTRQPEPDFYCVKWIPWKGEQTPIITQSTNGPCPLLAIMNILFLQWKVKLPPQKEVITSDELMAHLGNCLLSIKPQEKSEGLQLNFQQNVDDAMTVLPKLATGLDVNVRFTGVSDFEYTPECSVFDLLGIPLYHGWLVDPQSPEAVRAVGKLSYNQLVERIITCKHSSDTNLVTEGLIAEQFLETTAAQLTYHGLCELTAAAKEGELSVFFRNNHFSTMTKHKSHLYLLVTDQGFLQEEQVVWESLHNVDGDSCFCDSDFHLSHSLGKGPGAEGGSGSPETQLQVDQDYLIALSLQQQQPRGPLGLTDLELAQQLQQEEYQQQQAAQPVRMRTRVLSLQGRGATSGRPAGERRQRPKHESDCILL

[2] = target: Estrogen receptor alpha (endogenous, MCF-7 cells) (human (endogenous in MCF-7)) (UniProt P03372); test: co-IP; endogenous proteins from MCF-7 lysate; legend: RIPA lysis buffer, antibody as indicated; methods: NP-40 lysis buffer, 4 °C overnight, protein A/G PLUS-Agarose beads; western blot
[3] = target: GST-ERα (UniProt P03372); test: pull-down; purified His-MINDY1 incubated with GST-ERα or GST protein; glutathione agarose beads, overnight; washed with GST binding buffer; bound MINDY1 detected by western blot; both purified

HA-ERα full length (from UniProt P03372 1-595) (receptor)
binding [1]: binds

B1: MINDY1 (endogenous, MCF-7 cells) (enzyme, UniProt Q8N5J2 1-469)
chain: MEYHQPEDPAPGKAGTAEAVIPENHEVLAGPDEHPQDTDARDADGEAREREPADQALLPSQCGDNLESPLPEASSAPPGPTLGTLPEVETIRACSMPQELPQSPRTRQPEPDFYCVKWIPWKGEQTPIITQSTNGPCPLLAIMNILFLQWKVKLPPQKEVITSDELMAHLGNCLLSIKPQEKSEGLQLNFQQNVDDAMTVLPKLATGLDVNVRFTGVSDFEYTPECSVFDLLGIPLYHGWLVDPQSPEAVRAVGKLSYNQLVERIITCKHSSDTNLVTEGLIAEQFLETTAAQLTYHGLCELTAAAKEGELSVFFRNNHFSTMTKHKSHLYLLVTDQGFLQEEQVVWESLHNVDGDSCFCDSDFHLSHSLGKGPGAEGGSGSPETQLQVDQDYLIALSLQQQQPRGPLGLTDLELAQQLQQEEYQQQQAAQPVRMRTRVLSLQGRGATSGRPAGERRQRPKHESDCILL
binding [2]: binds

B2: Purified His-MINDY1 (enzyme, UniProt Q8N5J2 1-469)
chain: MEYHQPEDPAPGKAGTAEAVIPENHEVLAGPDEHPQDTDARDADGEAREREPADQALLPSQCGDNLESPLPEASSAPPGPTLGTLPEVETIRACSMPQELPQSPRTRQPEPDFYCVKWIPWKGEQTPIITQSTNGPCPLLAIMNILFLQWKVKLPPQKEVITSDELMAHLGNCLLSIKPQEKSEGLQLNFQQNVDDAMTVLPKLATGLDVNVRFTGVSDFEYTPECSVFDLLGIPLYHGWLVDPQSPEAVRAVGKLSYNQLVERIITCKHSSDTNLVTEGLIAEQFLETTAAQLTYHGLCELTAAAKEGELSVFFRNNHFSTMTKHKSHLYLLVTDQGFLQEEQVVWESLHNVDGDSCFCDSDFHLSHSLGKGPGAEGGSGSPETQLQVDQDYLIALSLQQQQPRGPLGLTDLELAQQLQQEEYQQQQAAQPVRMRTRVLSLQGRGATSGRPAGERRQRPKHESDCILL
binding [3]: binds
